Test results from publication PMC4231747.

Sequences of proteins named here, by UniProt entry; tags and fusion partners are left off.
UniProt P40160: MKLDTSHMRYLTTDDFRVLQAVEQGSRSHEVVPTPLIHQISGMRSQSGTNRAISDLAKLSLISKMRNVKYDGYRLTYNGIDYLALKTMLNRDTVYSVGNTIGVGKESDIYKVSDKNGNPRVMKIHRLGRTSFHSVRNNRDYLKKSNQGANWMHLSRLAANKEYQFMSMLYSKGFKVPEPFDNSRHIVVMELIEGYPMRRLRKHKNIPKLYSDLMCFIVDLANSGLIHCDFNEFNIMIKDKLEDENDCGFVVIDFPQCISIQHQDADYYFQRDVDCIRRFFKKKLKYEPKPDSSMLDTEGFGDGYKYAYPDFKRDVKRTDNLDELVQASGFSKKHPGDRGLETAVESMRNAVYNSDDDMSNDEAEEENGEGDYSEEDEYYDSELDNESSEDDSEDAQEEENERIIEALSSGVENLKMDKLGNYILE
UniProt P41819: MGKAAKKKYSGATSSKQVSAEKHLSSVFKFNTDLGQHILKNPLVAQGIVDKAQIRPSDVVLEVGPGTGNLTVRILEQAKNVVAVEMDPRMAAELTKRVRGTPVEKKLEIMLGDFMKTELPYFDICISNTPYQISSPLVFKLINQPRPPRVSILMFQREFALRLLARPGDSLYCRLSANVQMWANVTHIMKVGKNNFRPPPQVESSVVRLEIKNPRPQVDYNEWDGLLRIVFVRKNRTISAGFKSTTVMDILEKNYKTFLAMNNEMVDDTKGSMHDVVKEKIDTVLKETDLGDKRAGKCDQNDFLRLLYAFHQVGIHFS

Legend:
Nob1-HTP (S. cerevisiae) = molecular target: T1, Nob1-HTP (S. cerevisiae) (UniProt Q08444); assay: affinity purification with mass spectrometry; pre-ribosomal particles purified from yeast by the tagged bait (Nob1-HTP, Pno1-TAP, Rio2-TAP, Rio1-TAP), fractionated on a Superose 6 gel filtration column; elution fractions 1-5 digested and analysed by LC-MS/MS
T1 sequence: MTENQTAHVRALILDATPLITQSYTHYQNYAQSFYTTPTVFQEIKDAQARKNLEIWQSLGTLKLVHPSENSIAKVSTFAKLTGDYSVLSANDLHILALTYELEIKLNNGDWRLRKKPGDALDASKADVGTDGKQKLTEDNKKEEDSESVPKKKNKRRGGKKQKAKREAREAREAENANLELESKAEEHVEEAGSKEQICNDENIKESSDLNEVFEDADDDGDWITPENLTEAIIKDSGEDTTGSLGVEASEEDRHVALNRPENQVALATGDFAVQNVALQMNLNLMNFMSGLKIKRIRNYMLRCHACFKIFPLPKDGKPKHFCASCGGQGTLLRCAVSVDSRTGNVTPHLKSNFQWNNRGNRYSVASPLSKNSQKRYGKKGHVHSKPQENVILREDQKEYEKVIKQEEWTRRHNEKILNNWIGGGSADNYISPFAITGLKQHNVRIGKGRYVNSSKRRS

Rio2-TAP (S. cerevisiae) = Rio2-TAP (S. cerevisiae) (UniProt P40160); assay: as above

binding (Nob1-HTP (S. cerevisiae)): binds
binding (Rio2-TAP (S. cerevisiae)): binds
Substance: Dim1 (from UniProt P41819 1-318)

These are yes or no findings as the source states them, for the method shown. Binding seen in cells or lysates may run through a third protein. A yes stands for co-enrichment or nearness to the bait. Other partners may have been found.
